From article PMC9445035
These are yes or no findings as the source states them, for the method shown. In cells and extracts the contact can be indirect. Some entries that bind do so weakly or less than the wild type.

Chains of the proteins cited; added tags and fusions are not shown.
UniProt Q9R1R0: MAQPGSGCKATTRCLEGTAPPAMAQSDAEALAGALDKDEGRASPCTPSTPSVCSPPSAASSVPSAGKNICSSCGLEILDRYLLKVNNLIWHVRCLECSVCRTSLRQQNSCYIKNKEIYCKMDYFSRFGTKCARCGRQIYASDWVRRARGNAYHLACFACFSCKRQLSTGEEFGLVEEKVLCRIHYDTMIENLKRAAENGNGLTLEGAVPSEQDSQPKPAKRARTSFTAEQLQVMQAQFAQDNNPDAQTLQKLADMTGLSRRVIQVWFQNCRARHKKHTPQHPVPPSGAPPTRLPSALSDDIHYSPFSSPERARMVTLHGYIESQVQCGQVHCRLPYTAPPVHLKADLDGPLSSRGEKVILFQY

Experiments:
LDB1 = target: T1, LDB1 (UniProt P70662); experiment: co-IP; Cos7 cells co-transfected with both proteins, lysed 72 h later; lysate incubated overnight at 4 °C with magnetic beads carrying HA or FLAG antibody (IgG isotype controls); lysis and wash buffer 20 mM Hepes pH 7.4, 100 mM KCl, 2 mM MgCl2, 1% Triton X-100; Western blot for MTG8
T1 sequence: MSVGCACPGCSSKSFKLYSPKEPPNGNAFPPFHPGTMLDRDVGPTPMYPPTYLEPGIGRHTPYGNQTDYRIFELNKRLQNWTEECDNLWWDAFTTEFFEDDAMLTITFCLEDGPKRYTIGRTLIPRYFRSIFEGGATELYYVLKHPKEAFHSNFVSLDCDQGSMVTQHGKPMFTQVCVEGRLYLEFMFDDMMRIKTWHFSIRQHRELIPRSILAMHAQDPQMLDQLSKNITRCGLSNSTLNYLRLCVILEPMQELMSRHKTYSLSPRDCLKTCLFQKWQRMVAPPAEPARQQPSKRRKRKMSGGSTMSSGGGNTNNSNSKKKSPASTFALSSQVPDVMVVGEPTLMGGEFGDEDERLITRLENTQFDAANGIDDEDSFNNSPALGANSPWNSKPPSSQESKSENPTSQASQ

[1] = target: LHX6 (Myc-HA-HA-LHX6) (mouse) (UniProt Q9R1R0); experiment: as above

- binding (LDB1): no binding
- binding [1]: binds
B1: MTG8 (protein, UniProt Q61909 1-577)
chain: MPDRTEKHSTMPDSPVDVKTQSRLTPPAMPPPPTTQGAPRTSSFTPTTLTNGTSHSPTALNGAPSPPNGFSNGPSSSSSSSLANQQLPPACGARQLSKLKRFLTTLQQFGNDISPEIGERVRTLVLGLVNSTLTIEEFHSKLQEATNFPLRPFVIPFLKANLPLLQRELLHCARLAKQNPAQYLAQHEQLLLDASTTSPVDSSELLLDVNENGKRRTPDRTKENGFDREPLHSEHPSKRPCTISPGQRYSPNNGLSYQPNGLPHPTPPPPQHYRLDDMAIAHHYRDSYRHPSHRDLRDRNRPMGLHGTRQEEMIDHRLTDREWAEEWKHLDHLLNCIMDMVEKTRRSLTVLRRCQEADREELNYWIRRYSDAEDLKKGGSSSSSHSRQQSPVNPDPVALDAHREFLHRPASGYVPEEIWKKAEEAVNEVKRQAMTELQKAVSEAERKAHDMITTERAKMERTVAEAKRQAAEDALAVINQQEDSSESCWNCGRKASETCSGCNTARYCGSFCQHKDWEKHHHICGQTLQAPQQGDTPAVSSSVTPSSGAGSPMDTPPAATPRSTTPGTPSTIETTPR
